PubChem BioAssay AID504764 – Drosophila RNAi Screening Center, 2011

Assay: 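Knock-downs that raise or lower a Notch target reporter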 (primary screen)
Cell system: Drosophila Kc167 cells
Reagent: long dsRNA against Drosophila genes
Time to read-out: about 5 days (4 days dsRNA, then 24 h after transfection)
Conditions: transfection of constitutively active membrane-tethered Notch lacking the extracellular domain, read 24 h later
Read-out: 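Firefly luciferase from an E(spl)m3 reporter with active Notch, plus control-promoter and uninduced reporter wells for normalisation; unnormalised counts, duplicate wells a and b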
Scale: induced reporter light, run 1, well a and induced reporter light, run 1, well b: higher = more light from the Notch target reporter with active Notch; control promoter light, run 1, well a and control promoter light, run 1, well b: higher = more light from the viral control promoter (cell number, transfection, viability); uninduced reporter light, run 1, well a: higher = more light from the Notch target reporter without active Notch
Active means: 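Wells with low control signal or poorly matching duplicates excluded; duplicates averaged; per source plate, z beyond ±2 for induced/control log2 ratio or beyond ±1.8 for induced/uninduced marks a hit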
Calls: active = modifier hit (raised or lowered Notch signal); inactive = not a hit
In all, the deposit lists about 22,000 reagents; this is an unselected part of those that have a named target and a result. Of all reagents, 403 (1.9%) are marked active. 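Unnormalised raw counts per well; ratio z-scores behind the hit calls and whether each hit raises or lowers signal are not deposited.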 The record does not give: the amount of reagent.

{"gene":"CG4116","dsRNA":"DRSC18348","induced reporter light, run 1, well a":67320,"induced reporter light, run 1, well b":93090,"control promoter light, run 1, well a":1.16e5,"control promoter light, run 1, well b":1.47e5,"uninduced reporter light, run 1, well a":6415,"outcome":"inactive"}
{"gene":"Phk-3 (Pherokine 3)","dsRNA":"DRSC04547","induced reporter light, run 1, well a":1.61e5,"induced reporter light, run 1, well b":1.91e5,"control promoter light, run 1, well a":1.57e5,"control promoter light, run 1, well b":1.47e5,"uninduced reporter light, run 1, well a":13295,"outcome":"inactive"}
{"gene":"CG10324","dsRNA":"DRSC14230","induced reporter light, run 1, well a":1.72e5,"induced reporter light, run 1, well b":1.94e5,"control promoter light, run 1, well a":1.86e5,"control promoter light, run 1, well b":1.92e5,"uninduced reporter light, run 1, well a":12900,"outcome":"inactive"}
{"gene":"Abl (Abl tyrosine kinase)","dsRNA":"DRSC09661","induced reporter light, run 1, well a":2.72e5,"induced reporter light, run 1, well b":2.01e5,"control promoter light, run 1, well a":2.58e5,"control promoter light, run 1, well b":2.43e5,"uninduced reporter light, run 1, well a":8845,"outcome":"inactive"}
{"gene":"PPO2 (Prophenoloxidase 2)","dsRNA":"DRSC07102","induced reporter light, run 1, well a":79535,"induced reporter light, run 1, well b":50700,"control promoter light, run 1, well a":51040,"control promoter light, run 1, well b":49955,"uninduced reporter light, run 1, well a":4650,"outcome":"inactive"}
{"gene":"Lcp65Ac","dsRNA":"DRSC11210","induced reporter light, run 1, well a":1.93e5,"induced reporter light, run 1, well b":1.56e5,"control promoter light, run 1, well a":2.45e5,"control promoter light, run 1, well b":2.31e5,"uninduced reporter light, run 1, well a":8320,"outcome":"inactive"}
{"gene":"vers (versatile)","dsRNA":"DRSC10715","induced reporter light, run 1, well a":90900,"induced reporter light, run 1, well b":77605,"control promoter light, run 1, well a":54630,"control promoter light, run 1, well b":26785,"uninduced reporter light, run 1, well a":10130,"outcome":"inactive"}
{"gene":"Ugt37B1 (UDP-glycosyltransferase family 37 member B1)","dsRNA":"DRSC03225","induced reporter light, run 1, well a":1.97e5,"induced reporter light, run 1, well b":1.71e5,"control promoter light, run 1, well a":2.05e5,"control promoter light, run 1, well b":2.03e5,"uninduced reporter light, run 1, well a":9492,"outcome":"active"}
{"gene":"Ant2 (Adenine nucleotide translocase 2)","dsRNA":"DRSC19330","induced reporter light, run 1, well a":1.58e5,"induced reporter light, run 1, well b":1.65e5,"control promoter light, run 1, well a":2.97e5,"control promoter light, run 1, well b":2.59e5,"uninduced reporter light, run 1, well a":13345,"outcome":"active"}
{"gene":"eff (effete)","dsRNA":"DRSC16940","induced reporter light, run 1, well a":1.96e5,"induced reporter light, run 1, well b":2.14e5,"control promoter light, run 1, well a":2.43e5,"control promoter light, run 1, well b":2.24e5,"uninduced reporter light, run 1, well a":18065,"outcome":"inactive"}
{"gene":"CG15554","dsRNA":"DRSC15092","induced reporter light, run 1, well a":1.28e5,"induced reporter light, run 1, well b":94695,"control promoter light, run 1, well a":1.35e5,"control promoter light, run 1, well b":1.32e5,"uninduced reporter light, run 1, well a":7725,"outcome":"inactive"}

Looked up above:
Ugt37B1 (UDP-glycosyltransferase family 37 member B1) [DRSC03225], uninduced reporter light, run 1, well a → 9492
Entry for eff (effete) [DRSC16940] under “control promoter light, run 1, well a”: 2.43e5

The results go on:
{"gene":"out (outsiders)","dsRNA":"DRSC19347","induced reporter light, run 1, well a":1.26e5,"induced reporter light, run 1, well b":1.18e5,"control promoter light, run 1, well a":86985,"control promoter light, run 1, well b":62650,"uninduced reporter light, run 1, well a":8565,"outcome":"inactive"}
{"gene":"CG10182","dsRNA":"DRSC14202","induced reporter light, run 1, well a":1.77e5,"induced reporter light, run 1, well b":1.88e5,"control promoter light, run 1, well a":2.41e5,"control promoter light, run 1, well b":2.40e5,"uninduced reporter light, run 1, well a":17280,"outcome":"inactive"}
{"gene":"Lmpt (Limpet)","dsRNA":"DRSC09450","induced reporter light, run 1, well a":1.35e5,"induced reporter light, run 1, well b":1.48e5,"control promoter light, run 1, well a":1.94e5,"control promoter light, run 1, well b":1.96e5,"uninduced reporter light, run 1, well a":11040,"outcome":"inactive"}
{"gene":"Lmpt (Limpet)","dsRNA":"DRSC09864","induced reporter light, run 1, well a":1.77e5,"induced reporter light, run 1, well b":1.46e5,"control promoter light, run 1, well a":2.11e5,"control promoter light, run 1, well b":1.64e5,"uninduced reporter light, run 1, well a":8095,"outcome":"inactive"}
{"gene":"Lmpt (Limpet)","dsRNA":"DRSC09865","induced reporter light, run 1, well a":1.35e5,"induced reporter light, run 1, well b":1.39e5,"control promoter light, run 1, well a":82135,"control promoter light, run 1, well b":1.08e5,"uninduced reporter light, run 1, well a":9820,"outcome":"inactive"}
{"gene":"Lmpt (Limpet)","dsRNA":"DRSC09866","induced reporter light, run 1, well a":1.81e5,"induced reporter light, run 1, well b":1.59e5,"control promoter light, run 1, well a":1.81e5,"control promoter light, run 1, well b":1.71e5,"uninduced reporter light, run 1, well a":9835,"outcome":"inactive"}
{"gene":"Lmpt (Limpet)","dsRNA":"DRSC11107","induced reporter light, run 1, well a":1.61e5,"induced reporter light, run 1, well b":1.57e5,"control promoter light, run 1, well a":1.85e5,"control promoter light, run 1, well b":1.70e5,"uninduced reporter light, run 1, well a":9150,"outcome":"inactive"}
{"gene":"Lmpt (Limpet)","dsRNA":"DRSC21738","outcome":"inactive"}
